Laboratory results from patent US10849956B2, “Glycopeptide compositions” (priority 2014, dated 2020).
Values after ≈ are worked out from the molar mass of the structure shown.

Legend:
[1] = test system: Enterococcus faecalis ATCC 29212; test: Antibacterial susceptibility testing, broth dilution method (CLSI); assay type: cell-based; conditions: ATCC29212, read-out: Enterococcus faecalis MIC (μg/mL)
Description: (§1) Testing was performed using broth dilution method according to Clinical and Laboratory Standards Institute (CLSI) guidelines M100-S23/S24; M07-A9, the disclosure of which is herein incorporated by reference.
(§2) The antibiotic activity of eight aqueous pharmaceutical compositions was determined and compared to the activity of the injectable reference finished product, Vancocin, manufactured by Flynn Pharma Ltd. Antibiotic activity was determined against quality control strains: Staphylococcus aureus ATCC 29213, Enterococcus faecalis ATCC 29212 and Streptococcus pnemoniae ATCC 49619.

[2] = test system: Staphylococcus aureus ATCC 29213; test: as above; assay type: cell-based; conditions: ATCC29213, read-out: Staphylococcus aureus MIC (μg/mL)
Description: as §1, §2

CN[C@H](CC(C)C)C(=O)N[C@H]1C(=O)N[C@@H](CC(N)=O)C(=O)N[C@H]2C(=O)N[C@H]3C(=O)N[C@H](C(=O)N[C@H](C(=O)O)c4cc(O)cc(O)c4-c4cc3ccc4O)[C@H](O)c3ccc(c(Cl)c3)Oc3cc2cc(c3O[C@@H]2O[C@H](CO)[C@@H](O)[C@H](O)[C@H]2O[C@H]2C[C@](C)(N)[C@H](O)[C@H](C)O2)Oc2ccc(cc2Cl)[C@H]1O [Vancomycin USP standard, Vancomycin]
MIC [1]: 2 µg/mL (≈ 1.38 µM)
MIC [2]: 1 µg/mL (≈ 0.69 µM)
